Literature values as cited in patent US20250339432A1, “QUINAZOLINONE COMPOUND AS BRAF INHIBITOR FOR THE TREATMENT OF ADVANCED SOLID CANCER OR METASTASES” (Hoffmann-La Roche Inc., priority 2022, published 2025).
For at least one compound, name, drawing or mass did not settle the structure.

Tested on: melanoma patients with brain metastases
Details: basis of the futility level; cited from earlier work

SMILES: CCCS(=O)(=O)Nc1ccc(F)c(C(=O)c2c[nH]c3ncc(-c4ccc(Cl)cc4)cc23)c1F [vemurafinib]
- response rate: 20%
